{"source": "patent US20150231209A1", "about": "“STIMULATION OF OVARIAN FOLLICLE DEVELOPMENT AND OOCYTE MATURATION” (THE BOARD OF TRUSTEES OF THE LELAND STANFORD JUNIOR …, priority 2012, published 2015)", "origin": "cited, not measured here", "tested_on": "ovary", "conditions": "in vivo delivery by intraovarian cannulation, adult female nonhuman primates; cited from earlier work", "note": "At least one structure is not confirmed: it was looked up by name or label, or the drawing left a doubt."}
{"smiles": "CCCCCCCCc1ccc(CCC(N)(CO)CO)cc1", "note": "[FTY720, Fingolimod]", "values": [{"measurement": "radiation-induced ovarian failure and infertility", "result": "prevents"}]}
